Reference: PMC6319772
Results are given in words; binding and its absence hold for the method and conditions named. Some entries that bind do so weakly or less than the wild type.

The chains behind the UniProt entries cited, without tags or fusion partners.
UniProt Q9VDJ9: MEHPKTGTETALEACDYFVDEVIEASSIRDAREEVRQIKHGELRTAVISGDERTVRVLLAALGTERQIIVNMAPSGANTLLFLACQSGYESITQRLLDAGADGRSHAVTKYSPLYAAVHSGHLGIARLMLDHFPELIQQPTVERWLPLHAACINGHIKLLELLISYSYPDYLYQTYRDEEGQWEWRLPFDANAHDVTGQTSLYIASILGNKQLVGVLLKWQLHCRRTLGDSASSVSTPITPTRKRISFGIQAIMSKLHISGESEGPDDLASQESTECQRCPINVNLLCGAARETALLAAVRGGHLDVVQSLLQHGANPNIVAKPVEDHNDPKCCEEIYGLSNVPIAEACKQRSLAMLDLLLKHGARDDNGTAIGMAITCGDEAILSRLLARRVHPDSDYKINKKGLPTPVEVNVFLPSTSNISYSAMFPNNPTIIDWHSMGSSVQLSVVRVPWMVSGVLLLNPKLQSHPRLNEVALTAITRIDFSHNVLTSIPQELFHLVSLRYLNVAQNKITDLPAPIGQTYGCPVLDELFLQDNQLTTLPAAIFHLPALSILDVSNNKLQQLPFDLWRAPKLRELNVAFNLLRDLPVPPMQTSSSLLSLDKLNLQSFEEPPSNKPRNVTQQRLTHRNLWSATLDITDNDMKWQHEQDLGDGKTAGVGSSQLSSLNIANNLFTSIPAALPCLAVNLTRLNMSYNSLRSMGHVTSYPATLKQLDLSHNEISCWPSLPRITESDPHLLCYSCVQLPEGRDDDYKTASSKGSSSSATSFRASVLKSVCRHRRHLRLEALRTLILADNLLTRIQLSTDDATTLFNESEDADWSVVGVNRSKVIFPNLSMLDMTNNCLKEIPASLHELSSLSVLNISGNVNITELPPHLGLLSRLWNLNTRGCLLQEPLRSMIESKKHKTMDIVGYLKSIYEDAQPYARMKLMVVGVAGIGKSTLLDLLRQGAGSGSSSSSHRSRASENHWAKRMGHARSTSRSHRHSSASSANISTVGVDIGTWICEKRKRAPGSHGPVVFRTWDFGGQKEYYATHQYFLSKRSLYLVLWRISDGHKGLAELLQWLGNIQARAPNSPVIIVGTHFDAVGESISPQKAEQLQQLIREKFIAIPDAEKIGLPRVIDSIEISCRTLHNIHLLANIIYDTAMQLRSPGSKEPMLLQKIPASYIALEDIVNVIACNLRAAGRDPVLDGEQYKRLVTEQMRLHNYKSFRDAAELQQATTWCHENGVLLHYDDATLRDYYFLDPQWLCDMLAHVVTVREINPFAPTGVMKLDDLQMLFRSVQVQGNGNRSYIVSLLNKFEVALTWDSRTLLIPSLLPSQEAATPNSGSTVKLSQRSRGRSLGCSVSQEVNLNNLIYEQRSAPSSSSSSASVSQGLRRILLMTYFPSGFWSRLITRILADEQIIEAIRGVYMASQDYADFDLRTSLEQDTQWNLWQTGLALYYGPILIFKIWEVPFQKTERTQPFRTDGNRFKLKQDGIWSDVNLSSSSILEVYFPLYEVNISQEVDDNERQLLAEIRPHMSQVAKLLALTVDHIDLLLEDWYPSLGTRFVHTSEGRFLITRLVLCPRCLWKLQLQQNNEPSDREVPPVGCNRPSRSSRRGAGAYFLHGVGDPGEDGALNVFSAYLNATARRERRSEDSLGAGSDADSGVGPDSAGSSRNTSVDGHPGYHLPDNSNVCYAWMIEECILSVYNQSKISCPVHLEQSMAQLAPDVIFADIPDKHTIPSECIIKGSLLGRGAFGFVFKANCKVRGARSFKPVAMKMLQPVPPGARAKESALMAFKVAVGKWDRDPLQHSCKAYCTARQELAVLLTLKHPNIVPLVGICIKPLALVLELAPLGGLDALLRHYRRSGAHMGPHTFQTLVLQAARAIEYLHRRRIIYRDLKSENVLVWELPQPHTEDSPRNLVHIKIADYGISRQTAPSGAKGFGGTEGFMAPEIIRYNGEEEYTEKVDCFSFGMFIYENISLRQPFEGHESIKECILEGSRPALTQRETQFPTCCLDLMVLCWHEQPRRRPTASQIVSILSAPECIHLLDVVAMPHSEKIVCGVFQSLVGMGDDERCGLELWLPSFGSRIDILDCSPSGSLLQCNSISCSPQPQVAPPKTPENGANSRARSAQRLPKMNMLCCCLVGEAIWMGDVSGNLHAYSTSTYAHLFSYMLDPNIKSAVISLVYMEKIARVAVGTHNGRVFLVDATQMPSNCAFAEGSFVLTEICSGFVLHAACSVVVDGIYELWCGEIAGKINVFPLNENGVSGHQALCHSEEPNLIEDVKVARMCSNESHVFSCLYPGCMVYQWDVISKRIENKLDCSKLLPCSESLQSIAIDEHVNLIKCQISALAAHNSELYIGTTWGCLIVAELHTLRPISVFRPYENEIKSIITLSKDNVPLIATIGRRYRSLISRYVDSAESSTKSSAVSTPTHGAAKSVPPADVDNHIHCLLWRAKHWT

Target: HA-tagged Drosophila Lrrk expressed from its endogenous promoter (Lrrk^HA knockin) (Drosophila) (UniProt Q9VDJ9)
Experiment: native gel or EMSA; native PAGE of head lysates of flies with one Lrrk^HA allele and transgenic wild-type Lrrk or Lrrk-GS; western blot probed with anti-HA

binding: binds
Substance: HA-tagged Drosophila Lrrk expressed from its endogenous promoter (Lrrk^HA knockin) (from UniProt Q9VDJ9 1-2445) (enzyme)
